Measured values: the supplement of paper PMC5355238
Structures can show the parent of a compound that is named as a salt. The list shows a part of the results. Most entries show no effect beyond the scatter of the controls.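 Using flow cytometry, the assay measures the median γH2AX antibody signal in S-phase Reh cells (a human leukemia line). Each score is the number of standard deviations from the median difference of paired plate sets. Candidate hits scored above 2.5; compounds scoring below -2 lowered MK1775-induced damage.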

System: Reh
Assay: Z' of S-phase gammaH2AX difference (drug + MK1775 minus drug alone) (Z-score); higher = stronger synergistic S-phase DNA damage with MK1775
Conditions: MK1775 concentration 400 nM; first compound 10 µM; 4 h

Structure (SMILES)	Z' of S-phase gammaH2AX difference (Z-score)
O=C(CCCN1CCC2(CC1)C(=O)NCN2c1ccccc1)c1ccc(F)cc1 [Spiperone hydrochloride] + C=CCn1c(=O)c2cnc(Nc3ccc(N4CCN(C)CC4)cc3)nc2n1-c1cccc(C(C)(C)O)n1 [MK1775]	inactive: -0.0168
CC(C)Oc1cccnc1N(C)C1CCN(Cc2ccccc2)CC1 + C=CCn1c(=O)c2cnc(Nc3ccc(N4CCN(C)CC4)cc3)nc2n1-c1cccc(C(C)(C)O)n1 [MK1775]	inactive: -1.88
C[C@@H]1O[C@H](C[N+](C)(C)C)CS1 [OXA-22 iodide] + C=CCn1c(=O)c2cnc(Nc3ccc(N4CCN(C)CC4)cc3)nc2n1-c1cccc(C(C)(C)O)n1 [MK1775]	inactive: -0.287
NCC1(CC(=O)O)CCCCC1 [Gabapentin] + C=CCn1c(=O)c2cnc(Nc3ccc(N4CCN(C)CC4)cc3)nc2n1-c1cccc(C(C)(C)O)n1 [MK1775]	inactive: 0.255
CN1C2CCC1CC(OC(c1ccccc1)c1ccc(Cl)cc1)C2 (stereo not drawn) [4'-Chloro-3-alpha-(diphenylmethoxy)tropane hydrochloride] + C=CCn1c(=O)c2cnc(Nc3ccc(N4CCN(C)CC4)cc3)nc2n1-c1cccc(C(C)(C)O)n1 [MK1775]	inactive: 0.929
CCCn1c(=O)c2[nH]c(C3CCCC3)nc2n(CCCOC(=O)c2ccc(S(=O)(=O)F)cc2)c1=O + C=CCn1c(=O)c2cnc(Nc3ccc(N4CCN(C)CC4)cc3)nc2n1-c1cccc(C(C)(C)O)n1 [MK1775]	inactive: 2.31
CC(O)(CS(=O)(=O)c1ccc(F)cc1)C(=O)Nc1ccc(C#N)c(C(F)(F)F)c1 (centres undefined) [Bicalutamide (Casodex)] + C=CCn1c(=O)c2cnc(Nc3ccc(N4CCN(C)CC4)cc3)nc2n1-c1cccc(C(C)(C)O)n1 [MK1775]	inactive: 0.409
CCCCCCC(C)(C)c1ccc([C@@H]2C[C@H](O)CC[C@H]2CCCO)c(O)c1 + C=CCn1c(=O)c2cnc(Nc3ccc(N4CCN(C)CC4)cc3)nc2n1-c1cccc(C(C)(C)O)n1 [MK1775]	inactive: 0.324
CCCN1CCC[C@@H]2Cc3n[nH]cc3C[C@H]21 [(-)-Quinpirole hydrochloride] + C=CCn1c(=O)c2cnc(Nc3ccc(N4CCN(C)CC4)cc3)nc2n1-c1cccc(C(C)(C)O)n1 [MK1775]	inactive: -0.432
Cc1nc(-c2ccc(-c3ccc(C(=O)N4CCc5cc6c(cc54)C4(CCN(C)CC4)CO6)cc3)c(C)c2)no1 + C=CCn1c(=O)c2cnc(Nc3ccc(N4CCN(C)CC4)cc3)nc2n1-c1cccc(C(C)(C)O)n1 [MK1775]	inactive: -0.908
CC(C)c1cccc(C(C)C)c1O [Propofol] + C=CCn1c(=O)c2cnc(Nc3ccc(N4CCN(C)CC4)cc3)nc2n1-c1cccc(C(C)(C)O)n1 [MK1775]	inactive: 1.02
O=C(O)CC[N+](=O)[O-] [3-Nitropropionic acid] + C=CCn1c(=O)c2cnc(Nc3ccc(N4CCN(C)CC4)cc3)nc2n1-c1cccc(C(C)(C)O)n1 [MK1775]	inactive: 0.514
Oc1ccc2c3c1O[C@H]1[C@@H](O)CC[C@@]4(O)[C@@H](C2)N(CC2CCC2)CC[C@]314 [Nalbuphine hydrochloride] + C=CCn1c(=O)c2cnc(Nc3ccc(N4CCN(C)CC4)cc3)nc2n1-c1cccc(C(C)(C)O)n1 [MK1775]	inactive: 0.393
OCc1cnc[nH]1 [4-Imidazolemethanol hydrochloride] + C=CCn1c(=O)c2cnc(Nc3ccc(N4CCN(C)CC4)cc3)nc2n1-c1cccc(C(C)(C)O)n1 [MK1775]	inactive: -0.245
CN1C[C@H](CNC(=O)OCc2ccccc2)C[C@@H]2c3cccc4c3c(cn4C)C[C@H]21 [Metergoline] + C=CCn1c(=O)c2cnc(Nc3ccc(N4CCN(C)CC4)cc3)nc2n1-c1cccc(C(C)(C)O)n1 [MK1775]	inactive: 1.14
N#CC(C#N)=Cc1cc(O)c(O)c(O)c1 [Tyrphostin 25] + C=CCn1c(=O)c2cnc(Nc3ccc(N4CCN(C)CC4)cc3)nc2n1-c1cccc(C(C)(C)O)n1 [MK1775]	inactive: 0.822
CC(C)[C@@]1(NC(=O)[C@@H]2C=C3c4cccc5[nH]cc(c45)C[C@H]3N(C)C2)O[C@@]2(O)[C@@H]3CCCN3C(=O)[C@H](Cc3ccccc3)N2C1=O [Ergocristine] + C=CCn1c(=O)c2cnc(Nc3ccc(N4CCN(C)CC4)cc3)nc2n1-c1cccc(C(C)(C)O)n1 [MK1775]	inactive: -0.386

Structure (SMILES)	Z' of S-phase gammaH2AX difference (Z-score)
COc1ccc2c(c1)[C@@]13CCCC[C@H]1[C@@H](C2)NCC3 [3-Methoxy-morphanin hydrochloride] + C=CCn1c(=O)c2cnc(Nc3ccc(N4CCN(C)CC4)cc3)nc2n1-c1cccc(C(C)(C)O)n1 [MK1775]	inactive: -0.0243
COc1cc2c(c(OC)c1OC)-c1ccc(OC)c(=O)cc1[C@@H](NC(C)=O)CC2 [Colchicine] + C=CCn1c(=O)c2cnc(Nc3ccc(N4CCN(C)CC4)cc3)nc2n1-c1cccc(C(C)(C)O)n1 [MK1775]	inactive: -0.0367
CC(C)C1CNC(C(=O)O)C1CC(=O)O (centres undefined) [Dihydrokainic acid] + C=CCn1c(=O)c2cnc(Nc3ccc(N4CCN(C)CC4)cc3)nc2n1-c1cccc(C(C)(C)O)n1 [MK1775]	inactive: -0.211
CC[C@@H](CO)NC(=O)[C@@H]1C=C2c3cccc4c3c(cn4C)C[C@H]2N(C)C1 [Methysergide maleate] + C=CCn1c(=O)c2cnc(Nc3ccc(N4CCN(C)CC4)cc3)nc2n1-c1cccc(C(C)(C)O)n1 [MK1775]	inactive: -0.155
CC(N)C(O)c1ccc(O)c(O)c1 (single isomer, unassigned; (-)) [(-)-alpha-Methylnorepinephrine] + C=CCn1c(=O)c2cnc(Nc3ccc(N4CCN(C)CC4)cc3)nc2n1-c1cccc(C(C)(C)O)n1 [MK1775]	inactive: 0.789
C/C=C(/C)C(=O)O[C@H]1C(C)=C2[C@H]([C@@H]1OC(=O)CCCCCCC)[C@@](C)(OC(C)=O)C[C@H](OC(=O)CCC)[C@@]1(O)[C@H]2OC(=O)[C@@]1(C)O [Thapsigargin] + C=CCn1c(=O)c2cnc(Nc3ccc(N4CCN(C)CC4)cc3)nc2n1-c1cccc(C(C)(C)O)n1 [MK1775]	inactive: -2.59
C[C@]12CC[C@@H](O)C[C@@H]1CC[C@@H]1[C@@H]2CC[C@]2(C)[C@@H](C(=O)CO)CC[C@@H]12 [3-alpha,21-Dihydroxy-5-alpha-pregnan-20-one] + C=CCn1c(=O)c2cnc(Nc3ccc(N4CCN(C)CC4)cc3)nc2n1-c1cccc(C(C)(C)O)n1 [MK1775]	inactive: 0.364
c1ccc2c(c1)OCC(C1=NCCN1)O2 (centres undefined) [Idazoxan hydrochloride] + C=CCn1c(=O)c2cnc(Nc3ccc(N4CCN(C)CC4)cc3)nc2n1-c1cccc(C(C)(C)O)n1 [MK1775]	inactive: 2.07
CCCN(CCC)[C@H]1CCc2c(F)ccc(O)c2C1 [S(-)-UH-301 hydrochloride] + C=CCn1c(=O)c2cnc(Nc3ccc(N4CCN(C)CC4)cc3)nc2n1-c1cccc(C(C)(C)O)n1 [MK1775]	inactive: 0.0615
CCCN1CCO[C@@H]2c3cc(O)ccc3OC[C@H]21 [S(+)-PD 128,907 hydrochloride] + C=CCn1c(=O)c2cnc(Nc3ccc(N4CCN(C)CC4)cc3)nc2n1-c1cccc(C(C)(C)O)n1 [MK1775]	inactive: -0.582
COC(=O)c1cc2c(cn1)[nH]c1ccccc12 [Methyl beta-carboline-3-carboxylate] + C=CCn1c(=O)c2cnc(Nc3ccc(N4CCN(C)CC4)cc3)nc2n1-c1cccc(C(C)(C)O)n1 [MK1775]	inactive: -0.274
C[C@@H]1O[C@@H](O[C@H]2C[C@@H](O)[C@]3(CO)[C@H]4[C@H](O)C[C@]5(C)[C@@H]([C@@H]6COC(=O)C6)CC[C@]5(O)[C@@H]4CC[C@]3(O)C2)[C@H](O)[C@H](O)[C@H]1O [Dihydroouabain] + C=CCn1c(=O)c2cnc(Nc3ccc(N4CCN(C)CC4)cc3)nc2n1-c1cccc(C(C)(C)O)n1 [MK1775]	inactive: -0.571
CCCn1c(C)c(C(=O)c2cccc3ccccc23)c2ccccc21 + C=CCn1c(=O)c2cnc(Nc3ccc(N4CCN(C)CC4)cc3)nc2n1-c1cccc(C(C)(C)O)n1 [MK1775]	inactive: -0.114
O=P1(N(CCCl)CCCl)NCCCO1 (centres undefined) [Cyclophosphamide monohydrate] + C=CCn1c(=O)c2cnc(Nc3ccc(N4CCN(C)CC4)cc3)nc2n1-c1cccc(C(C)(C)O)n1 [MK1775]	inactive: 0.124
CC(=O)OCC1=C(C(=O)[O-])N2C(=O)[C@@H](NC(=O)CCC[C@@H](N)C(=O)[O-])[C@H]2SC1.[Zn+2] [Cephalosporin C zinc salt] + C=CCn1c(=O)c2cnc(Nc3ccc(N4CCN(C)CC4)cc3)nc2n1-c1cccc(C(C)(C)O)n1 [MK1775]	inactive: -0.494
CN1C(=O)CCS(=O)(=O)C1c1ccc(Cl)cc1 (centres undefined) [Chlormezanone] + C=CCn1c(=O)c2cnc(Nc3ccc(N4CCN(C)CC4)cc3)nc2n1-c1cccc(C(C)(C)O)n1 [MK1775]	inactive: 0.398
O=C(O)[C@@H]1CCN1 [L-azetidine-2-carboxylic acid] + C=CCn1c(=O)c2cnc(Nc3ccc(N4CCN(C)CC4)cc3)nc2n1-c1cccc(C(C)(C)O)n1 [MK1775]	inactive: 0.147

Individual results from the entries so far:
Value for C/C=C(/C)C(=O)O[C@H]1C(C)=C2[C@H]([C@@H]1OC(=O)CCCCCCC)[C@@](C)(OC(C)=O)C[C@H](OC(=O)CCC)[C@@]1(O)[C@H]2OC(=O)[C@@]1(C)O [Thapsigargin] + C=CCn1c(=O)c2cnc(Nc3ccc(N4CCN(C)CC4)cc3)nc2n1-c1cccc(C(C)(C)O)n1 [MK1775] under Z' of S-phase gammaH2AX difference (Z-score): inactive: -2.59
Value for C[C@]12CC[C@@H](O)C[C@@H]1CC[C@@H]1[C@@H]2CC[C@]2(C)[C@@H](C(=O)CO)CC[C@@H]12 [3-alpha,21-Dihydroxy-5-alpha-pregnan-20-one] + C=CCn1c(=O)c2cnc(Nc3ccc(N4CCN(C)CC4)cc3)nc2n1-c1cccc(C(C)(C)O)n1 [MK1775] under Z' of S-phase gammaH2AX difference (Z-score): inactive: 0.364
